Binding data for 8 molecules are collected here from article doi:10.1101/2023.09.11.557182.

Sequences of proteins named here, by UniProt entry; tags and fusion partners are left off.
UniProt P37276: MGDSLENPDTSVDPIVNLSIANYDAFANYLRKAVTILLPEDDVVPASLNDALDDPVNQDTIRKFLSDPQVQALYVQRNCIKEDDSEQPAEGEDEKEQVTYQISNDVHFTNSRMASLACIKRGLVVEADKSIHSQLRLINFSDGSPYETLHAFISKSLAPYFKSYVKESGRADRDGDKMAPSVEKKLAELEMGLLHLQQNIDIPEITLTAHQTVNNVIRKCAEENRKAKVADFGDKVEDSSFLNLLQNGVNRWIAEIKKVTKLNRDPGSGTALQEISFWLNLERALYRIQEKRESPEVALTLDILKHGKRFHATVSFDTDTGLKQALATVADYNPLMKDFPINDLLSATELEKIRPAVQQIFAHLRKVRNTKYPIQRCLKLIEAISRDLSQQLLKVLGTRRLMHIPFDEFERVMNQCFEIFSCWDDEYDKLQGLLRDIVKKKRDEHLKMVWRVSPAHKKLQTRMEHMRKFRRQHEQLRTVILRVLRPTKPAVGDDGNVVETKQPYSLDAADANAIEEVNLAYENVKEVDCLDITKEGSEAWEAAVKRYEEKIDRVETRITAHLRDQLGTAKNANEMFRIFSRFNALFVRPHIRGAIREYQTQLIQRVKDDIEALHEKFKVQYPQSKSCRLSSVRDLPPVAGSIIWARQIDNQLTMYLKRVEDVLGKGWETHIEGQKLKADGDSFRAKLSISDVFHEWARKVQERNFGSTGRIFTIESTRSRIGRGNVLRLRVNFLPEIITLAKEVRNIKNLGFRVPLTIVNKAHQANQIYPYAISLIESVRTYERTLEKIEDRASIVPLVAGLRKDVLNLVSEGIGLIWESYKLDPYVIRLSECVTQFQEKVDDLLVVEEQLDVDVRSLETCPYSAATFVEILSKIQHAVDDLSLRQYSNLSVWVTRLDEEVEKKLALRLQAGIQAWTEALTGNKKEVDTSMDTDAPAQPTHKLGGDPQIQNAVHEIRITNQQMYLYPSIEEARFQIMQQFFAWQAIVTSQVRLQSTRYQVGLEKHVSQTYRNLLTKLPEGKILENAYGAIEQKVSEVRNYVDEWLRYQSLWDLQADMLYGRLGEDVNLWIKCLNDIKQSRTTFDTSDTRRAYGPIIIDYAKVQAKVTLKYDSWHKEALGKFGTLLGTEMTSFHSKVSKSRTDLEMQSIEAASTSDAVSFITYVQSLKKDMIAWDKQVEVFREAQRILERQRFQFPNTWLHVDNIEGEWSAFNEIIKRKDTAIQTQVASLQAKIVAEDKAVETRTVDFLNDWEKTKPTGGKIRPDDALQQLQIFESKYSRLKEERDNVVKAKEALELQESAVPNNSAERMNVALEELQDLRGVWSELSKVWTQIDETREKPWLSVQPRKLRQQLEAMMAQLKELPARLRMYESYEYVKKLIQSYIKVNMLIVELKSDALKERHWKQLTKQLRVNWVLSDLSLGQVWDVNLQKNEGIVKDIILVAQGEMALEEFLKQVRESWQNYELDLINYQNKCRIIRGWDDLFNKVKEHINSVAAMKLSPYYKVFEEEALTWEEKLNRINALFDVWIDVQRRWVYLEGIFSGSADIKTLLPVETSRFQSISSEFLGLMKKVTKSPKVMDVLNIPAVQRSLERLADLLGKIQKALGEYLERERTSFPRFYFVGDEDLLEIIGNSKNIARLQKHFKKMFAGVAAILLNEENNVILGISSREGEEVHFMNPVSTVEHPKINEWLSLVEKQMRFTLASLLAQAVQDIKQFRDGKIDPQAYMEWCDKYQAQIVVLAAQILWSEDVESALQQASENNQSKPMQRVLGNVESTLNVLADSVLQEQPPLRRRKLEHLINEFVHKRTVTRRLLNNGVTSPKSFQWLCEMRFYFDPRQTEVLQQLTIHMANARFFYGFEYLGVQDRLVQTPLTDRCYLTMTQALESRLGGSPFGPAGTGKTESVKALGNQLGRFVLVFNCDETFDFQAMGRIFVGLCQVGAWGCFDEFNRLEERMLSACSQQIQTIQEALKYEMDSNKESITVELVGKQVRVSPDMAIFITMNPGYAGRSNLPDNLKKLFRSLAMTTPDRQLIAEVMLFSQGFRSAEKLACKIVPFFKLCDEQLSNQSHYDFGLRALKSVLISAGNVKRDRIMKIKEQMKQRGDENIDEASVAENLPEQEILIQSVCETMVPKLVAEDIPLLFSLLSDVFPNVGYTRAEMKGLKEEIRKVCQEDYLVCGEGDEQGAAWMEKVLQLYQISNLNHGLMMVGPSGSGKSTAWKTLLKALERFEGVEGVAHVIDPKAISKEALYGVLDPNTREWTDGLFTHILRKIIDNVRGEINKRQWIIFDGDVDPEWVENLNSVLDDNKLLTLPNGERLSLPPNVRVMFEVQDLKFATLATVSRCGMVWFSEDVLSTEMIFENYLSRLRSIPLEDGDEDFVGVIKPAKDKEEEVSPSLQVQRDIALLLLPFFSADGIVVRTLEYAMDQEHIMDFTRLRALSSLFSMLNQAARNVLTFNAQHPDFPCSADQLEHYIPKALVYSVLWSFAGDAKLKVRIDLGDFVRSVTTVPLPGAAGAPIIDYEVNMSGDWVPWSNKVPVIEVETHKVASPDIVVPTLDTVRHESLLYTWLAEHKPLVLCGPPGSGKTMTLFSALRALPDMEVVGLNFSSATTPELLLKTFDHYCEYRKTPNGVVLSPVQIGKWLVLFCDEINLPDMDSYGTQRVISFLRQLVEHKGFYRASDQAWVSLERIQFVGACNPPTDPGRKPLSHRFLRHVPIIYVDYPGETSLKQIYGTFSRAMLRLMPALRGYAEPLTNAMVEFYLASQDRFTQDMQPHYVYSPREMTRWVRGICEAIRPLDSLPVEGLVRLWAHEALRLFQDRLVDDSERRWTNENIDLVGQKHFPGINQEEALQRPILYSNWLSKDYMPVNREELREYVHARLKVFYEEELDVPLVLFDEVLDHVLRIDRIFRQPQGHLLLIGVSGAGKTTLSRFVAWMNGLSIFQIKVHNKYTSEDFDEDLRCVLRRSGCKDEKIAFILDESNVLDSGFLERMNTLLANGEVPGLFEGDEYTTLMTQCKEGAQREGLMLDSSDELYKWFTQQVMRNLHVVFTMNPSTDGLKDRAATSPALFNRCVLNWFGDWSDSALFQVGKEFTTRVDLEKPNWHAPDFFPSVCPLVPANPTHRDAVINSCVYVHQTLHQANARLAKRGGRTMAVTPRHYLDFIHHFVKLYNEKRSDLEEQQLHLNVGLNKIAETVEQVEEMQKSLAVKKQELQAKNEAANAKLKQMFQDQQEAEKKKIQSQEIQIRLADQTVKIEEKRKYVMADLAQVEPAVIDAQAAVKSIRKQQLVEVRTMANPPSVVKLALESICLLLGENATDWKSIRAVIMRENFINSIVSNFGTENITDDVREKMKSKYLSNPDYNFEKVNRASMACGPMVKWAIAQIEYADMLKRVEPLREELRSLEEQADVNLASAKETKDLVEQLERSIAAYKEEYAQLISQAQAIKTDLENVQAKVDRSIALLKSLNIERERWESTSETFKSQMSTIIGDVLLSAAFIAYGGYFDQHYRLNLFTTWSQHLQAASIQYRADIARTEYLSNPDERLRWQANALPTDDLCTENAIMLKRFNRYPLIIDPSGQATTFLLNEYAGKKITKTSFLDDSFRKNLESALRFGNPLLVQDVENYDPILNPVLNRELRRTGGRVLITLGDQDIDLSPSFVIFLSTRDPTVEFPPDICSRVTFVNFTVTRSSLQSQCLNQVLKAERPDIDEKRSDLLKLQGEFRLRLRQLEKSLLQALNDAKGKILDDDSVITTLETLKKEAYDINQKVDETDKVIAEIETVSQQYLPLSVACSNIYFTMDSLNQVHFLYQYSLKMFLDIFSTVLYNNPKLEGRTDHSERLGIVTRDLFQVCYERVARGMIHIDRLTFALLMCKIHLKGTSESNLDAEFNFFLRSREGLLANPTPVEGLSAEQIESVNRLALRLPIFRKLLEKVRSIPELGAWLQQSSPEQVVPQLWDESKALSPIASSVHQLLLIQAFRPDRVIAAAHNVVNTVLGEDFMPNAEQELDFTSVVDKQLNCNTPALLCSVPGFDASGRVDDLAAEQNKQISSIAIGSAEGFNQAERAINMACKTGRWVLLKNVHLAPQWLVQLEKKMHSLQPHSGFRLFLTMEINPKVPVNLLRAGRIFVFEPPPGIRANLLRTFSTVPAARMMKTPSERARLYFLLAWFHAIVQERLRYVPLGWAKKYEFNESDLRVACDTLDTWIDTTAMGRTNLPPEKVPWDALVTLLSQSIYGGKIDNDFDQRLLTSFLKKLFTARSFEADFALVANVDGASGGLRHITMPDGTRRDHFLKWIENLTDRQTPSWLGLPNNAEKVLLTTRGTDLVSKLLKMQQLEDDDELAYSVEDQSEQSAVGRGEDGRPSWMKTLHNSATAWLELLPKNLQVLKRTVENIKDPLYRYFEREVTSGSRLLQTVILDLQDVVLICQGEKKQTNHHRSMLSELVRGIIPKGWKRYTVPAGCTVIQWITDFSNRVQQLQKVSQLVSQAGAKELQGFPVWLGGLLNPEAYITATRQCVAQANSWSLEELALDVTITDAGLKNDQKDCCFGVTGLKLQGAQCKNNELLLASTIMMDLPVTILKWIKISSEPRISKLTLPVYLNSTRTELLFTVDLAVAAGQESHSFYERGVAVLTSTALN
UniProt Q9NFU0: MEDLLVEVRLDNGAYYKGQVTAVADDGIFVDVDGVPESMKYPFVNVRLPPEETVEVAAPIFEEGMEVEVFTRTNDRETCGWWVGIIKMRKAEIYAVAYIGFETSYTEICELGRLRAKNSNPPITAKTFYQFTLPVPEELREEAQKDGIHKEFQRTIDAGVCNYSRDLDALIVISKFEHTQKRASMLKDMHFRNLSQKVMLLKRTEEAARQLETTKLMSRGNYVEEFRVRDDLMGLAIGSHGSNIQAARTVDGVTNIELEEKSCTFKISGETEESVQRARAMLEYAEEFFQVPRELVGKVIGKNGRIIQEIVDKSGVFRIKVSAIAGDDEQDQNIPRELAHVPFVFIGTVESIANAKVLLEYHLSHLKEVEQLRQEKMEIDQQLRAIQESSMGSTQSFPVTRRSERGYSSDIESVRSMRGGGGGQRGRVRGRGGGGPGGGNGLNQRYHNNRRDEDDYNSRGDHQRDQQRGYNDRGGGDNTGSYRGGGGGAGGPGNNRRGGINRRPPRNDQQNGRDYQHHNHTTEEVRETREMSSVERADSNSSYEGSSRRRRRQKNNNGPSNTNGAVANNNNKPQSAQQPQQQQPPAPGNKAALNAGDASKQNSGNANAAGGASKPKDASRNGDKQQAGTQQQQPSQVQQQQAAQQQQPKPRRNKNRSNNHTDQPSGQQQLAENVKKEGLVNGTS
UniProt P17210: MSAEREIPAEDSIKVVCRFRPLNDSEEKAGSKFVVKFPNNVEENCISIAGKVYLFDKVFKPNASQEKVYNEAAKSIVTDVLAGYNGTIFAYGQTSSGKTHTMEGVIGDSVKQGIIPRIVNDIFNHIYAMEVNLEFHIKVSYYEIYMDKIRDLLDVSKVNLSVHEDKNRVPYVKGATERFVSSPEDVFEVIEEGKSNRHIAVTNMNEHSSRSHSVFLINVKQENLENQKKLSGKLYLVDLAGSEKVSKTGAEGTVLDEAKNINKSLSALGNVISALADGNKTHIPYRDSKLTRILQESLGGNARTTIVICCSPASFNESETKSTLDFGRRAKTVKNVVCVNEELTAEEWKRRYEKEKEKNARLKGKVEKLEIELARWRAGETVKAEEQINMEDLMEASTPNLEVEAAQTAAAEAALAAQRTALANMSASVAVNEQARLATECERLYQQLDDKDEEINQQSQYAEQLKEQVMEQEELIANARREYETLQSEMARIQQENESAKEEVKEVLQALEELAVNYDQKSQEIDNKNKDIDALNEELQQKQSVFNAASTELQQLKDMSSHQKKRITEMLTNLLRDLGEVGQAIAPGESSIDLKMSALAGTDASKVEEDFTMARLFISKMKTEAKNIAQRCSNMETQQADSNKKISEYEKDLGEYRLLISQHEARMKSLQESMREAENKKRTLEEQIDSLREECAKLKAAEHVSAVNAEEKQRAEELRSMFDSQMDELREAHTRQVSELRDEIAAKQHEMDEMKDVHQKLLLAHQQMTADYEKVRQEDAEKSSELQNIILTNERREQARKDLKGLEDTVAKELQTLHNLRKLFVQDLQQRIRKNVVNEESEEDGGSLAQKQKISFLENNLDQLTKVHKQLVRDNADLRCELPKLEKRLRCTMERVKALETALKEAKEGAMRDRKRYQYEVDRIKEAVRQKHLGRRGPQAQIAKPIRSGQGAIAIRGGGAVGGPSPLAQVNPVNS
UniProt O18334: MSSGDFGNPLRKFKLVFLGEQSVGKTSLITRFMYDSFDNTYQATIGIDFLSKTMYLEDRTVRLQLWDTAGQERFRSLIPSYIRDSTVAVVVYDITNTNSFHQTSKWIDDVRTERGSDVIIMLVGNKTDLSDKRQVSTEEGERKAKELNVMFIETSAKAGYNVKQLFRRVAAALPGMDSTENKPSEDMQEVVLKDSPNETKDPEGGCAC

What all share (test): proximity labelling
Assay [1] has as its target T1, Trbo-BicD (wild-type Bicaudal-D tagged with TurboID on its N-terminus) (Drosophila) (UniProt P16568).
T1 sequence: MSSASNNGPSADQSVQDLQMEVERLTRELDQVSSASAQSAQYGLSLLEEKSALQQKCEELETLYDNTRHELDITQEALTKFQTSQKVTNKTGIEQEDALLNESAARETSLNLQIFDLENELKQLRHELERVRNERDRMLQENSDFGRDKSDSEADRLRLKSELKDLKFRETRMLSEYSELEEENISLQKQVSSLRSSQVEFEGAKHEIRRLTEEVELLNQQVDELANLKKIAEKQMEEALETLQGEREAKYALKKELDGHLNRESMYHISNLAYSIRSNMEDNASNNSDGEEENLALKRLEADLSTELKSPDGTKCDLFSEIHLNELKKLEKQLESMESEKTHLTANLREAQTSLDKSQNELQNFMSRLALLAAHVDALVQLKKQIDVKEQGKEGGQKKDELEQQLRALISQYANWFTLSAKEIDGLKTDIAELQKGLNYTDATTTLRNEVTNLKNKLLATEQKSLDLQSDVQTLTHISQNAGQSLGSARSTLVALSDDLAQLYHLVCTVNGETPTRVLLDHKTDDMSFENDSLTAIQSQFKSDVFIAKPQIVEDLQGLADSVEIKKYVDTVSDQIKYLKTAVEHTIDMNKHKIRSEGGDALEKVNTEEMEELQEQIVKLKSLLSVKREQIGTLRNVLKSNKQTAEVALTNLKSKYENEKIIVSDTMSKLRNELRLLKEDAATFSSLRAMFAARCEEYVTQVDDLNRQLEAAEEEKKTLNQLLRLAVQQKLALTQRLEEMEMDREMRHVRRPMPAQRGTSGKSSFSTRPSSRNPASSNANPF

Assay [2] deals with T2, Trbo-Dmn (Dynamitin (Dmn)/p50 tagged with TurboID on its N-terminus) (Drosophila) (UniProt Q7K2D2).
T2 sequence: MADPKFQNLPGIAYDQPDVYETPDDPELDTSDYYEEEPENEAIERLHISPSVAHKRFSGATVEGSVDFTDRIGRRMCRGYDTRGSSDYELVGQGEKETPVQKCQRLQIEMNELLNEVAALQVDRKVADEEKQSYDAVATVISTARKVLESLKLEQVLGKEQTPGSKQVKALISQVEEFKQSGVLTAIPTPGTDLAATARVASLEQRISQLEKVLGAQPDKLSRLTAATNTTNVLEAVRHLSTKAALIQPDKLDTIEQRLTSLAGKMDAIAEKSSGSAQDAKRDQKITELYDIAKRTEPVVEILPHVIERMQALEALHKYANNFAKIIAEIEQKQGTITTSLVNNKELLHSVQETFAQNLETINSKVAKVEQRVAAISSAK

In assay [3] the target is T1, Trbo-BicD (wild-type Bicaudal-D tagged with TurboID on its N-terminus) (Drosophila). This is another data set of the same source.
Assay [4] deals with T3, Trbo-BicD_R688A (Drosophila) (UniProt P16568).
T3 sequence: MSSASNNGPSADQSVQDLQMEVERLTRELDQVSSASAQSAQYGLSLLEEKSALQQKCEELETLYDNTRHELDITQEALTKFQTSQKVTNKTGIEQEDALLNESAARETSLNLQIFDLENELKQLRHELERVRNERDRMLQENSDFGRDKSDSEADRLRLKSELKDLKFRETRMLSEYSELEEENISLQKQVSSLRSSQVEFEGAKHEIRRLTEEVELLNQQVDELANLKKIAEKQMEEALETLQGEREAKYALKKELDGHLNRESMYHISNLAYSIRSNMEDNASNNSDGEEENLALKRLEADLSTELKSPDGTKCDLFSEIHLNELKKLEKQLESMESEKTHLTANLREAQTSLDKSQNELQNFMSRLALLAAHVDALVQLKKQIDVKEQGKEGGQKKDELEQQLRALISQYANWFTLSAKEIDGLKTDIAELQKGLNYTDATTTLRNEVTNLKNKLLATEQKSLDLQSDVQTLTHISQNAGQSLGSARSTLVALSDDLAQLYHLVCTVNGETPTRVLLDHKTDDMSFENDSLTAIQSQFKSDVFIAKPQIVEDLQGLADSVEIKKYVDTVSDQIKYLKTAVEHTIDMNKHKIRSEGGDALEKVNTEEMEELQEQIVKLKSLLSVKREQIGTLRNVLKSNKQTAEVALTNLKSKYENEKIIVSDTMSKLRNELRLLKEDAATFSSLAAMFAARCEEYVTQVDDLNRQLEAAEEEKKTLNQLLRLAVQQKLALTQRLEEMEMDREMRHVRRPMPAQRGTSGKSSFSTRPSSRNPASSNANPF

For assay [5], the target named is T2, Trbo-Dmn (Dynamitin (Dmn)/p50 tagged with TurboID on its N-terminus) (Drosophila). This is another data set of the same source.

Where two headings read alike, the source gives them in different places. These are yes or no findings as the source states them, for the method shown. Binding seen in cells or lysates may run through a third protein. These calls come from enrichment with a bait or labelling near it, and not all partners need be listed. For part of these data: No binding means not detected with the bait. For part of these data: Where a sequence is shown, tags or fusion partners need not be part of it.

Regarding “Dynein heavy chain (Dhc) (from UniProt P37276 1-4639)”, the binding entry in assay [1] and in assay [2] was “binds” throughout.

Take “Fmr1 (fragile X messenger ribonucleoprotein 1) (from UniProt Q9NFU0 1-684)”: in assay [1], the binding result was “binds”.

Regarding “Kinesin heavy chain (Khc) (from UniProt P17210 1-975)”, in assay [1], the binding entry is “binds”.

In the case of “Rab6 (endogenous) (from UniProt O18334 1-208)”, the binding entry in assay [1] is recorded as “no binding”.

B1: RanGAP (protein, UniProt Q9VIW3 1-596)
chain: MSTFNFASMAAQLGQEQGISFENKVLSWNTAADVQDVVDALNKQTTVHYLNLDGNTLGVEAAKAIGEGLKRHPEFRKALWKNMFTGRLISEIPEALKHLGAALIVAGAKLTVLDLSDNALGPNGMRGLEELLRSPVCYSLQELLLCNCGLGPEGGSMLSRALIDLHANANKAGFPLQLRVFIGSRNRLEDAGATEMATAFQTLKTFEEIVLEQNSIYIEGVEALAESFKHNPHLRVLNMNDNTLKSEGAEKIAEALPFLPLLREMSFGDCLIKTNGAYHFGEALERGNERLEVIDLGFNEINSDGGLVLVNAMGNKPKLRILNLDGNSFGEEGSEKIISEMSKLPTAAALQPFQHQEEEDLEDEYQADKQDADYEEEEEVHEHANDTTEEADEDSEGDEDDEEDEGDEEYSNVAEETAYVTTNAYTTKLFNDTTNSMASETFAVANKTISQKCTPEKFCLSQKPCSQEDFDSLDMDNKLEALQSIVNQFTGDNHLLLLVFTTLKCAHLSQSSKAALDLAVSLYQATFDYAIKTKQETRVLNYVLMQLRLLPCKEVFHSDYDVKNCRFALREALKQPTFANDNIKNSFKTFLEGAES
With B1, the binding entry in assay [3] is given as “binds”.

B2: Me31b (protein, UniProt P23128 1-459)
chain: MMTEKLNSGHTNLTSKGIINDLQIAGNTSDDMGWKSKLKLPPKDNRFKTTDVTDTRGNEFEEFCLKRELLMGIFEKGWERPSPIQEAAIPIALSGKDVLARAKNGTGKTGAYCIPVLEQIDPTKDYIQALVMVPTRELALQTSQICIELAKHLDIRVMVTTGGTILKDDILRIYQKVQLIIATPGRILDLMDKKVADMSHCRILVLDEADKLLSLDFQGMLDHVILKLPKDPQILLFSATFPLTVKNFMEKHLREPYEINLMEELTLKGVTQYYAFVQERQKVHCLNTLFSKLQINQSIIFCNSTQRVELLAKKITELGYCCYYIHAKMAQAHRNRVFHDFRQGLCRNLVCSDLFTRGIDVQAVNVVINFDFPRMAETYLHRIGRSGRFGHLGIAINLITYEDRFDLHRIEKELGTEIKPIPKVIDPALYVANVGASVGDTCNNSDLNNSANEEGNVSK
Turning to B2, the binding entry in assay [4] is on record as “binds”.

B3: Bicaudal-D (BicD), endogenous (protein, UniProt P16568 1-782)
chain: MSSASNNGPSADQSVQDLQMEVERLTRELDQVSSASAQSAQYGLSLLEEKSALQQKCEELETLYDNTRHELDITQEALTKFQTSQKVTNKTGIEQEDALLNESAARETSLNLQIFDLENELKQLRHELERVRNERDRMLQENSDFGRDKSDSEADRLRLKSELKDLKFRETRMLSEYSELEEENISLQKQVSSLRSSQVEFEGAKHEIRRLTEEVELLNQQVDELANLKKIAEKQMEEALETLQGEREAKYALKKELDGHLNRESMYHISNLAYSIRSNMEDNASNNSDGEEENLALKRLEADLSTELKSPDGTKCDLFSEIHLNELKKLEKQLESMESEKTHLTANLREAQTSLDKSQNELQNFMSRLALLAAHVDALVQLKKQIDVKEQGKEGGQKKDELEQQLRALISQYANWFTLSAKEIDGLKTDIAELQKGLNYTDATTTLRNEVTNLKNKLLATEQKSLDLQSDVQTLTHISQNAGQSLGSARSTLVALSDDLAQLYHLVCTVNGETPTRVLLDHKTDDMSFENDSLTAIQSQFKSDVFIAKPQIVEDLQGLADSVEIKKYVDTVSDQIKYLKTAVEHTIDMNKHKIRSEGGDALEKVNTEEMEELQEQIVKLKSLLSVKREQIGTLRNVLKSNKQTAEVALTNLKSKYENEKIIVSDTMSKLRNELRLLKEDAATFSSLRAMFAARCEEYVTQVDDLNRQLEAAEEEKKTLNQLLRLAVQQKLALTQRLEEMEMDREMRHVRRPMPAQRGTSGKSSFSTRPSSRNPASSNANPF
Consider B3, for which the binding result in assay [5] is recorded as “binds”.

B4: Cup (protein, UniProt Q9VMA3 1-1117)
chain: MQMAEAEQENGAGALKIATNAGATDRPAHQQLPLPVEDQQDEVLTPAEKGKFEYPPPPPPPTPVQAPLATKATALNASQEHDDDEANSEKWEDPCAPPPPPPLPTSAFLATGLGYLKLPAFKLKDALEKAITKLEANKRTLKASPESSRSIKNKNVVALEMLPRRSNPETIGDGSMLASTSTAVMLQTKKPAVIVEMERRCKIINLLAKQNQILESISGEAIPMHGPSKHLHEDEGLTLQVLSARASTPYTQPSSMLSCTAVSCDLEHDSPRKQVASKEAVPEQQSSQVQQKRPPSTGIHKPGSLRAPKAVRPTTAPVVSSKPVKSYTRSRLMDIRNGMFNALMHRSKESFVMPRIATCDDIELEGRLRRMNIWRTSDGTRFRTRSTTANLNMNNNNNNECMPAFFKNKNKPNLISDESIIQSQPPQPQTEFQDPAIVNQRRIGSGRLNHSKWGYNDEDYHSYHNGKSQHMEEVNSKNSKNMTVLQFFDNGEISSQPQRRPNTPVMGMSINRSENDTLHSNESSEDLSRANENYVKRVMSGFLVVSKPKSRDVEDRHHRRYRNQNEEPEWFSCGPTSRLDTIELCGFDEDEEKMLKEGNKNHGLGETERETSKQKMDHKYKWTHAEPMGRSKYMPKHDTNNNHNVENMNNVMATEHQQQKEEKRPGSGRSFQFDKFNQSQQNYESSSYVNHQQPPQTQPQQMQQQSNTNTNNSKFMSFFANEGNSSSSSLNEFFKQAINQGHGNNPEQPKSLGHIGQMPSVDQLEAKWRRNSLNNVGETANKQTDNFQKLIGSLSSAKPQSQAVGYDAISNFIMQQQQYQQQQQKQHLIIQQQQQHTAFLASLQLKAILGRADTQLLLLRLTKGEISKHGLLVQLANPRLTDMDREAITAVLQFTNTQQQQQQHKQQLDMLSSTVIASQLQNLHNLAIVQQTLAARQQPQHNPQTQAPHQLSQEDLQAHANVIMRNAVMKRKIEEQTSKLINGGAKHQAQQQYLNRGQQRQARPDANSNALLHALISGGGNNHASGYPMNGQPQKHHSNLRFGDNQNFQSFESNQPHFATQYKQQYQQSQQQHPHQQPQQLNSLHQNNAGAVNSFNKAQMQAQSAISMLPNSGDEFH
For B4, the binding entry in assay [4] is reported as “binds”.
